This experiment addresses FLAG-SET/TAF-Iβ (UniProt Q01105). Kind of experiment: co-IP; ectopic expression followed by co-IP of SET/TAF-Iβ with PRC1-associated proteins; cells and tags not given.

The chains behind the UniProt entries cited, without tags or fusion partners. Where a name states a change or a piece, a line headed by the entry shows the natural chain unless it says otherwise. A line that says so, or that is headed by a name, gives the form on record, which may keep a tag or linker.
FLAG-SET/TAF-Iβ (Q01105, form named): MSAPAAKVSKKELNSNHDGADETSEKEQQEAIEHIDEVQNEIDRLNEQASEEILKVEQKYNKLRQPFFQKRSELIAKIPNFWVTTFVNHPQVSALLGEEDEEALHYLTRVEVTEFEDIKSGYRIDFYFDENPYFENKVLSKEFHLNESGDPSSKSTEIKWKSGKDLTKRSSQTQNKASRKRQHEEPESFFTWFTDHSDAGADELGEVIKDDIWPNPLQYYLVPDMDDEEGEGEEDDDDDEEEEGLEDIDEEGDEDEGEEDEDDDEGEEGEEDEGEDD
UniProt P35226: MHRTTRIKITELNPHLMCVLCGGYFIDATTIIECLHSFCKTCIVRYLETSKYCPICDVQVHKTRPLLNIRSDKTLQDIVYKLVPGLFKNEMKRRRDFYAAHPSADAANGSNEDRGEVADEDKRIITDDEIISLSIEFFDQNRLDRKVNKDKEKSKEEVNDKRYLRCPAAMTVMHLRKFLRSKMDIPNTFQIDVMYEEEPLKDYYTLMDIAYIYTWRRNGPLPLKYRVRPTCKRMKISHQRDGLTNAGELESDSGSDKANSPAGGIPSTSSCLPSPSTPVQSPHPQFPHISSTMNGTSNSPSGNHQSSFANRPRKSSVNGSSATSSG
UniProt Q99496: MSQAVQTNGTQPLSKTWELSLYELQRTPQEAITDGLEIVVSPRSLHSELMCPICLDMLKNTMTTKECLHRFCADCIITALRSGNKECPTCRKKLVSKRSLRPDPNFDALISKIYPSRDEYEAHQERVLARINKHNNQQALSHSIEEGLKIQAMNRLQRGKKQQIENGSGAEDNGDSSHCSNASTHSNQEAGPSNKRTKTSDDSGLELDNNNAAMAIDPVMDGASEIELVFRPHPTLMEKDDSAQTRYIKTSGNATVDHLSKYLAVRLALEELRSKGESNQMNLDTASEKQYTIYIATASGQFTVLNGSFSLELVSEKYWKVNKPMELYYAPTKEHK

These are yes or no findings as the source states them, for the method shown. Binding seen in cells or lysates may run through a third protein.

Our source for the binding values is publication PMC10516711.

Consider BMI1 (from UniProt P35226 1-326), for which the binding result is “no binding”. Take RING1B (from UniProt Q99496 1-336): the binding result is given as “no binding”.

B1: RYBP (protein, UniProt Q8N488 1-228)
chain: MTMGDKKSPTRPKRQAKPAADEGFWDCSVCTFRNSAEAFKCSICDVRKGTSTRKPRINSQLVAQQVAQQYATPPPPKKEKKEKVEKQDKEKPEKDKEISPSVTKKNTNKKTKPKSDILKDPPSEANSIQSANATTKTSETNHTSRPRLKNVDRSTAQQLAVTVGNVTVIITDFKEKTRSSSTSSSTVTSSAGSEQQNQSSSGSESTDKGSSRSSTPKGDMSAVNDESF
With B1, the binding entry is given as “no binding”.

B2: CBX8 (protein, UniProt Q9HC52 1-389)
chain: MELSAVGERVFAAEALLKRRIRKGRMEYLVKWKGWSQKYSTWEPEENILDARLLAAFEEREREMELYGPKKRGPKPKTFLLKAQAKAKAKTYEFRSDSARGIRIPYPGRSPQDLASTSRAREGLRNMGLSPPASSTSTSSTCRAEAPRDRDRDRDRDRERDRERERERERERERERERERGTSRVDDKPSSPGDSSKKRGPKPRKELPDPSQRPLGEPSAGLGEYLKGRKLDDTPSGAGKFPAGHSVIQLARRQDSDLVQCGVTSPSSAEATGKLAVDTFPARVIKHRAAFLEAKGQGALDPNGTRVRHGSGPPSSGGGLYRDMGAQGGRPSLIARIPVARILGDPEEESWSPSLTNLEKVVVTDVTSNFLTVTIKESNTDQGFFKEKR
As for B2, the binding result is reported as “no binding”.

B3: KDM2B (protein, UniProt Q8NHM5 1-1336)
chain: MAGPQMGGSAEDHPPRKRHAAEKQKKKTVIYTKCFEFESATQRPIDRQRYDENEDLSDVEEIVSVRGFSLEEKLRSQLYQGDFVHAMEGKDFNYEYVQREALRVPLIFREKDGLGIKMPDPDFTVRDVKLLVGSRRLVDVMDVNTQKGTEMSMSQFVRYYETPEAQRDKLYNVISLEFSHTKLEHLVKRPTVVDLVDWVDNMWPQHLKEKQTEATNAIAEMKYPKVKKYCLMSVKGCFTDFHIDFGGTSVWYHVFRGGKIFWLIPPTLHNLALYEEWVLSGKQSDIFLGDRVERCQRIELKQGYTFFIPSGWIHAVYTPVDSLVFGGNILHSFNVPMQLRIYEIEDRTRVQPKFRYPFYYEMCWYVLERYVYCVTQRSHLTQEYQRESMLIDAPRKPSIDGFSSDSWLEMEEEACDQQPQEEEEKDEEGEGRDRAPKPPTDGSTSPTSTPSEDQEALGKKPKAPALRFLKRTLSNESEESVKSTTLAVDYPKTPTGSPATEVSAKWTHLTEFELKGLKALVEKLESLPENKKCVPEGIEDPQALLEGVKNVLKEHADDDPSLAITGVPVVTWPKKTPKNRAVGRPKGKLGPASAVKLAANRTTAGARRRRTRCRKCEACLRTECGECHFCKDMKKFGGPGRMKQSCIMRQCIAPVLPHTAVCLVCGEAGKEDTVEEEEGKFNLMLMECSICNEIIHPGCLKIKESEGVVNDELPNCWECPKCNHAGKTGKQKRGPGFKYASNLPGSLLKEQKMNRDNKEGQEPAKRRSECEEAPRRRSDEHSKKVPPDGLLRRKSDDVHLRKKRKYEKPQELSGRKRASSLQTSPGSSSHLSPRPPLGSSLSPWWRSSLTYFQQQLKPGKEDKLFRKKRRSWKNAEDRMALANKPLRRFKQEPEDELPEAPPKTRESDHSRSSSPTAGPSTEGAEGPEEKKKVKMRRKRRLPNKELSRELSKELNHEIQRTENSLANENQQPIKSEPESEGEEPKRPPGICERPHRFSKGLNGTPRELRHQLGPSLRSPPRVISRPPPSVSPPKCIQMERHVIRPPPISPPPDSLPLDDGAAHVMHREVWMAVFSYLSHQDLCVCMRVCRTWNRWCCDKRLWTRIDLNHCKSITPLMLSGIIRRQPVSLDLSWTNISKKQLSWLINRLPGLRDLVLSGCSWIAVSALCSSSCPLLRTLDVQWVEGLKDAQMRDLLSPPTDNRPGQMDNRSKLRNIVELRLAGLDITDASLRLIIRHMPLLSKLHLSYCNHVTDQSINLLTAVGTTTRDSLTEINLSDCNKVTDQCLSFFKRCGNICHIDLRYCKQVTKEGCEQFIAEMSVSVQFGQVEEKLLQKLS
Take B3: the binding entry is listed as “no binding”.
